Assay results from the supplement of paper PMC10849652.
Some of the results follow.

By UniProt entry, the sequences of proteins in these tests, tags left out. Where a name states a change or a piece, a line headed by the entry shows the natural chain unless it says otherwise.
UniProt Q9C0B0: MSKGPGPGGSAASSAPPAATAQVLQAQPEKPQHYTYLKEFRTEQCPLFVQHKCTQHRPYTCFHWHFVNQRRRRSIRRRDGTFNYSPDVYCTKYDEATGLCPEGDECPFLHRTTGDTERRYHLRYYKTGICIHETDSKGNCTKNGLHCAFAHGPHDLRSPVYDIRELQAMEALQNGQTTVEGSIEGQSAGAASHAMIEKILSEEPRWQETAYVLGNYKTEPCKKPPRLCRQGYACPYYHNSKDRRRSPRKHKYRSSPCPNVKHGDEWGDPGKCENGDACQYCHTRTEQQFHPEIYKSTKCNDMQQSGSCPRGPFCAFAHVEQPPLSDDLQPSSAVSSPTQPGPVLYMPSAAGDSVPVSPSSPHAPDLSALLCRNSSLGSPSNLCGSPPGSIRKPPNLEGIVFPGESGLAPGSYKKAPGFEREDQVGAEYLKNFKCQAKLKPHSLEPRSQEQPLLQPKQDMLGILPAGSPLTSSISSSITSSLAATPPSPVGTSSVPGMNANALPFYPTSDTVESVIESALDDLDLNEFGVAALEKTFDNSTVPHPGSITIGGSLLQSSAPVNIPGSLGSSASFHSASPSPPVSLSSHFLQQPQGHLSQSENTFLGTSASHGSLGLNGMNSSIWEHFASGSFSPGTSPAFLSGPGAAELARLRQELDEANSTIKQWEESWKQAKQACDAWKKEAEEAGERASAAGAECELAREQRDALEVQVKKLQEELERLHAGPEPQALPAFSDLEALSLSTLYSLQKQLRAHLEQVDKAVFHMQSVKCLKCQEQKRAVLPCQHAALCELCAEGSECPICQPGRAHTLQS
UniProt Q9Y4E8: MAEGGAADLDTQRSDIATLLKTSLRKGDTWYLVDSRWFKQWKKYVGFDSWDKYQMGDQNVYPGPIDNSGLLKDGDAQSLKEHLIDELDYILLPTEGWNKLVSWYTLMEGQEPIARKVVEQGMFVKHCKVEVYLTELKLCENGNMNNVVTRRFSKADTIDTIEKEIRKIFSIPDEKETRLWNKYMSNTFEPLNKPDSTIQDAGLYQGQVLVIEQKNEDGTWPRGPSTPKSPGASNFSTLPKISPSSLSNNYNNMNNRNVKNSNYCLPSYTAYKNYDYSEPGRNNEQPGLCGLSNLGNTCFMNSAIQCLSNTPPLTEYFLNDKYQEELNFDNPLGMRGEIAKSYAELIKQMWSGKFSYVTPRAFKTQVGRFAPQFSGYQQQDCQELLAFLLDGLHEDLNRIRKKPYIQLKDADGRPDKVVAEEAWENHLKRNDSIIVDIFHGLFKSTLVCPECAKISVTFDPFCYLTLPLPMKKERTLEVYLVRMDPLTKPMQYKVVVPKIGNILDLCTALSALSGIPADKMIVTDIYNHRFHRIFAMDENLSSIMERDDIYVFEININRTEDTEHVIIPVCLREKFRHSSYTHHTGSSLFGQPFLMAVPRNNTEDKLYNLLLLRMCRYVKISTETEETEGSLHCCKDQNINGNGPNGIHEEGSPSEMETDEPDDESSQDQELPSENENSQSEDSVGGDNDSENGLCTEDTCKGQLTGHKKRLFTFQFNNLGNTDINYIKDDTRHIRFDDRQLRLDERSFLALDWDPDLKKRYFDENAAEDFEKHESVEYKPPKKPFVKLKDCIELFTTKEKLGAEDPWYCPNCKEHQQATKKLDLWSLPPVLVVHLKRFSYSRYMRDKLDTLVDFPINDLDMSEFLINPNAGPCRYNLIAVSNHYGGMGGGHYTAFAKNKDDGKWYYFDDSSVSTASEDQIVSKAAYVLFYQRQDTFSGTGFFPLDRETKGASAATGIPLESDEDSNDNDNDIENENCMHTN
UniProt Q92738: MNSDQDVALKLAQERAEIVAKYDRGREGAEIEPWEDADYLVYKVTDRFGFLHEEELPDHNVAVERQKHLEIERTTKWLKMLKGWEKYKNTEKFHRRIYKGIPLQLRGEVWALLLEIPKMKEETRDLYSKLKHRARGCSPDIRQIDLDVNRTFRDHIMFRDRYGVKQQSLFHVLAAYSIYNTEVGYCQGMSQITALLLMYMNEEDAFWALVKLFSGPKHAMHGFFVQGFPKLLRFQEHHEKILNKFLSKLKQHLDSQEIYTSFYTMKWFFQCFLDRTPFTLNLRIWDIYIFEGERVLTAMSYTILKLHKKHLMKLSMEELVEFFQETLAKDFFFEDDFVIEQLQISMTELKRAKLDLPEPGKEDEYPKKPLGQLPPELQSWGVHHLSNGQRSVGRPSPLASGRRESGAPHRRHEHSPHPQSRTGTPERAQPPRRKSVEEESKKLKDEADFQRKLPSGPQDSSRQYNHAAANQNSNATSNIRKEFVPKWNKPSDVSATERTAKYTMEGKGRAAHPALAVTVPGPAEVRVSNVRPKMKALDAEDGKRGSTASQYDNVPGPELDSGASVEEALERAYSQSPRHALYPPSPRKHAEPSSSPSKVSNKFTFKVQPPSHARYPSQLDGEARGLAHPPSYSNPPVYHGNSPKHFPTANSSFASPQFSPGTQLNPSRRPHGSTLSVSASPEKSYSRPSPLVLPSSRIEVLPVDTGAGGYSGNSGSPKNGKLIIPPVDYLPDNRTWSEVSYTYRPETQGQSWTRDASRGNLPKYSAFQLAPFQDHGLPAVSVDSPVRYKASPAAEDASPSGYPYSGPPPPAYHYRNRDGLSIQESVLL
UniProt Q9BTM9: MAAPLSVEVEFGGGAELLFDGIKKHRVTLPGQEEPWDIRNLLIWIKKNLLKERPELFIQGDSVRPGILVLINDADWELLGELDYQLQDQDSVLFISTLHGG
UniProt Q6ZT12: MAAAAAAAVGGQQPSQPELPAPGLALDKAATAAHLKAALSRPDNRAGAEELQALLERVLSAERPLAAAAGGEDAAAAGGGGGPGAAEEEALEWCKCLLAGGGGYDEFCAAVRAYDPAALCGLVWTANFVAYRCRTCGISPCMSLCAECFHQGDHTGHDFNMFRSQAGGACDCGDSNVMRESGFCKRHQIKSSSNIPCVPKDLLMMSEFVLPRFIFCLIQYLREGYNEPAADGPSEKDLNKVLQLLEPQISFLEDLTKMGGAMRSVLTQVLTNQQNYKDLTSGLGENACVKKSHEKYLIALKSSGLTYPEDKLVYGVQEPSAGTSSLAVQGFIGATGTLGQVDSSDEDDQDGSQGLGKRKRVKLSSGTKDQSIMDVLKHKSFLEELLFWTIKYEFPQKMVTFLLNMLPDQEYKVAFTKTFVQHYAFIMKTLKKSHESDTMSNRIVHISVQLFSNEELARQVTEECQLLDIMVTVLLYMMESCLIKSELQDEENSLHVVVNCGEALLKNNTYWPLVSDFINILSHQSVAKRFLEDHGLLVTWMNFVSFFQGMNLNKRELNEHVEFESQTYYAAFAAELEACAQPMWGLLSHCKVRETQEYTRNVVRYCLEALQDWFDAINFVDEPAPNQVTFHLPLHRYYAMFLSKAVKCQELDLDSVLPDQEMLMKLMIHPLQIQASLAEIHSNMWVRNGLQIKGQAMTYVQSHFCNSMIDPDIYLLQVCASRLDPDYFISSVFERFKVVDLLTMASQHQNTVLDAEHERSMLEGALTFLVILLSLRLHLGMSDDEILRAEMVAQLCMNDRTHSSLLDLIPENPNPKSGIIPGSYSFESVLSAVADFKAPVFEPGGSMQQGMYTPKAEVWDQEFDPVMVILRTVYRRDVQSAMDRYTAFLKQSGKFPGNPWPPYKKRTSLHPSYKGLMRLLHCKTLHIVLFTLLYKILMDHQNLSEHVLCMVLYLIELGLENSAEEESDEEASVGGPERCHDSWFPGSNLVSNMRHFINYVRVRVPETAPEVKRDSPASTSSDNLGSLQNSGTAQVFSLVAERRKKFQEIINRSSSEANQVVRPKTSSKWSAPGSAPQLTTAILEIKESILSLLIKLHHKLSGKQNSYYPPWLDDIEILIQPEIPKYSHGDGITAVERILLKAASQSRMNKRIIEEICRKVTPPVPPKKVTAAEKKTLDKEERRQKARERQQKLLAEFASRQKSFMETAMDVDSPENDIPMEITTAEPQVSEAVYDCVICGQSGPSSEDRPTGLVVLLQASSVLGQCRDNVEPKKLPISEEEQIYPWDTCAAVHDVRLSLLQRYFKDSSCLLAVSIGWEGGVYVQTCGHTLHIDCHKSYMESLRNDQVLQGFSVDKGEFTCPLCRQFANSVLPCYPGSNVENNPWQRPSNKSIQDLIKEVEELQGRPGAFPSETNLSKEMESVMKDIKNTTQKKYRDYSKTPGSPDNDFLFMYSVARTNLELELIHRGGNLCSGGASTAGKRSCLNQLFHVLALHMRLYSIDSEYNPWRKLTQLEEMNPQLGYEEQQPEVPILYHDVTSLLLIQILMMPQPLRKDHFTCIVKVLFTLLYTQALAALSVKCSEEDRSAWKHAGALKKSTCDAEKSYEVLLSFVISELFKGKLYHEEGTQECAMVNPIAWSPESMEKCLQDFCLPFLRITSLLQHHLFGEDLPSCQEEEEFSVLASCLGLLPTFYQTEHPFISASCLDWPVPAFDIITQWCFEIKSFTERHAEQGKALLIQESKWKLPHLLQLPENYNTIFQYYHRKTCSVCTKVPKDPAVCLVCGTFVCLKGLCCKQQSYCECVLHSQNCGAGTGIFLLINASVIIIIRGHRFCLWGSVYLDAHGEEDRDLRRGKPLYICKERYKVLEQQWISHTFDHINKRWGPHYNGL
UniProt O94782: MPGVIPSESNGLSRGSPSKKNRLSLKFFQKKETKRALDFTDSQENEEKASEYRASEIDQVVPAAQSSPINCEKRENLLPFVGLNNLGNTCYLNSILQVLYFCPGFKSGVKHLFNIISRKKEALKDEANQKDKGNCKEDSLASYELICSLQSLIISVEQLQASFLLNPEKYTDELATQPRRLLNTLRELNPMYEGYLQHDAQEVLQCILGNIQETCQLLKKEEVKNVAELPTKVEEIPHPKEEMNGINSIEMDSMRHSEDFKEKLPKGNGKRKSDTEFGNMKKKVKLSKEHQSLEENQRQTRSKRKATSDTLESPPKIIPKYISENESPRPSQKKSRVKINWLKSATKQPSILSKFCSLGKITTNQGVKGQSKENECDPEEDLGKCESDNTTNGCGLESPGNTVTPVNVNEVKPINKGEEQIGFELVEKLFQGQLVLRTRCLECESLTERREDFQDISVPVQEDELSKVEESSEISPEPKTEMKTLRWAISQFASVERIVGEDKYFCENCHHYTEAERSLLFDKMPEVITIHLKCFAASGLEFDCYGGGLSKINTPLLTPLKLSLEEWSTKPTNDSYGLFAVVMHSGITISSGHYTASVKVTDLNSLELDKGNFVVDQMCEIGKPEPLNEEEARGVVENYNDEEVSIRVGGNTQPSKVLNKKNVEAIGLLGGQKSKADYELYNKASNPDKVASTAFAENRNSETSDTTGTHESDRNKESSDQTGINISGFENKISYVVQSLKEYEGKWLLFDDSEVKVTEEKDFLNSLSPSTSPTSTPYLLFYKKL
UniProt O94763, whole entry, looked up: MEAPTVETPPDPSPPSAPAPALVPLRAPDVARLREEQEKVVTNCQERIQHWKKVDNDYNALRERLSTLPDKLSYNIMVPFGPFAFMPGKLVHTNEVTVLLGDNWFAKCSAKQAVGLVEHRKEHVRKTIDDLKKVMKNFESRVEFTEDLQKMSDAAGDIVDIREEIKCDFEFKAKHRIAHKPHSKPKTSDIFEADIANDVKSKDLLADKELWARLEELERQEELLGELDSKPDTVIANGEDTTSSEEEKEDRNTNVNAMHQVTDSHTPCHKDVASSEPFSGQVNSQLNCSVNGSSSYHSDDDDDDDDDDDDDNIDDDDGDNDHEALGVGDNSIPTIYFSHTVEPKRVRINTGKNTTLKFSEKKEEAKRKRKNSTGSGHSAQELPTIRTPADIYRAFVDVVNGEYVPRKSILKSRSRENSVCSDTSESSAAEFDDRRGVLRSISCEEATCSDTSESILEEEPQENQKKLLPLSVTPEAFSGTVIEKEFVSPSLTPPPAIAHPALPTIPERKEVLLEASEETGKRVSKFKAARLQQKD
UniProt Q9Y6I4: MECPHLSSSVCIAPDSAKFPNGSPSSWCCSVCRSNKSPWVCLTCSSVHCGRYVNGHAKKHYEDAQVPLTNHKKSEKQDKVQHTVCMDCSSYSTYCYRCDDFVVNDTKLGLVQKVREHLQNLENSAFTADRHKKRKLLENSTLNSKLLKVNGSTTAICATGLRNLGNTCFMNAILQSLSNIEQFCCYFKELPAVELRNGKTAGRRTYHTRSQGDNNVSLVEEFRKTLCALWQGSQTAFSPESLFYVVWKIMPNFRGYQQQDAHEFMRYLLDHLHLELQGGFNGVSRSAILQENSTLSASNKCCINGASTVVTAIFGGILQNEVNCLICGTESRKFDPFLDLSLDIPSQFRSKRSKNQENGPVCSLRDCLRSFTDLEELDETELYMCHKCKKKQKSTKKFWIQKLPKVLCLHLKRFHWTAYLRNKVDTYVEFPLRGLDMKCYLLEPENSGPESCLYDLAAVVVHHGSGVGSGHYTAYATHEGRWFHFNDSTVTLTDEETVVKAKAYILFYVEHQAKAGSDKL

Experiments:
Experiment in all cases: log2 fold change, soluble protein after heating vs DMSO (PISA); higher = thermal stabilisation; K562 cells, 10 uM, 30 min; active = over 0.2 and 3.5 SD of the protein, either way, in both replicates (recomputed)
[1] = compound: COC1=CC=C(C=C1)CN2C=CC3=C2C=C(C=C3)C(=O)NO
How it was run: (§1)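 Quantification of soluble protein used TMTpro 16plex LC-MS/MS, with channel sums equalised. Samples were the supernatant after 21,000xg for 90 min of pooled aliquots from K562 cells (2×10^6 cells/mL) treated with 10 μM compound for 30 min, heated for 3 min over 48°C-58°C, and extracted in PBS with 0.5% NP-40 at 4°C. Values, from duplicates, describe thermal stability against control samples on a log2 fold-change scale.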

[2] = compound: CON(C)C(=O)N1N=C(c2cc(F)ccc2F)S[C@@]1(CCCN)c1ccccc1 [filanesib]
How it was run: as §1

[3] = compound: CO[C@H]1C[C@@H]2CC[C@@H](C)[C@@](O)(O2)C(=O)C(=O)N2CCCC[C@H]2C(=O)O[C@H]([C@H](C)C[C@@H]2CC[C@H](n3cnnn3)[C@H](OC)C2)CC(=O)[C@H](C)/C=C(\C)[C@@H](O)[C@@H](OC)C(=O)[C@H](C)C[C@H](C)/C=C/C=C/C=C/1C [zotarolimus]
How it was run: as §1

[4] = compound: COc1cc(C(=O)O)ccc1NC(=O)[C@@H]1N[C@@H](CC(C)(C)C)[C@](C#N)(c2ccc(Cl)cc2F)[C@H]1c1cccc(Cl)c1F [idasanutlin]
How it was run: as §1

[5] = compound: COc1cc(Nc2ncc3c(n2)-c2ccc(Cl)cc2C(c2c(F)cccc2OC)=NC3)ccc1C(=O)O [alisertib]
How it was run: as §1

[6] = compound: COc1cc2nc(-c3cc(F)ccc3O)nc(N[C@@H]3CNC[C@H]3C(C)(C)O)c2cc1OC
How it was run: as §1

[7] = compound: COc1cc2ncnc(Nc3ccc(F)c(Cl)c3)c2cc1OCCCN1CCOCC1 [gefitinib]
How it was run: as §1

[8] = compound: COc1cccc2cc(-c3nc([C@H]4CC[C@H](C(=O)O)CC4)n4ncnc(N)c34)[nH]c12
How it was run: as §1

[9] = compound: CS(=O)(=O)CCNCc1ccc(-c2ccc3ncnc(Nc4ccc(OCc5cccc(F)c5)c(Cl)c4)c3c2)o1 [lapatinib]
How it was run: as §1

[10] = compound: CS(=O)(=O)N1CCN(Cc2cc3nc(-c4cccc5[nH]ncc45)nc(N4CCOCC4)c3s2)CC1 [pictilisib]
How it was run: as §1

[11] = compound: CS(=O)(=O)c1ccc(-c2cnc(N)c(C(=O)Nc3ccccc3)n2)cc1
How it was run: as §1

[12] = compound: C[C@@H](Oc1cc(-c2cnn(C3CCNCC3)c2)cnc1N)c1c(Cl)ccc(F)c1Cl [crizotinib]
How it was run: as §1

[13] = compound: C[C@H](C1=CC=C(C=C1)C(=O)NC2=C3C=CNC3=NC=C2)N
How it was run: as §1

[14] = compound: C[C@H](Nc1ncnc2nc[nH]c12)c1cc2cccc(Cl)c2c(=O)n1-c1ccccc1 [duvelisib]
How it was run: as §1

[15] = compound: Cc1cc(Nc2cc(CN3CCOCC3)c3nc(C)c(Cc4ccc(Cl)cc4F)n3n2)n[nH]1 [gandotinib]
How it was run: as §1

[16] = compound: Cc1cc(Nc2cc(N3CCN(C)CC3)nc(Sc3ccc(NC(=O)C4CC4)cc3)n2)n[nH]1 [tozasertib]
How it was run: as §1

[17] = compound: Cc1cc(SCc2sc(-c3ccc(C(F)(F)F)cc3)nc2C)ccc1OCC(=O)O
How it was run: as §1

[18] = compound: Cc1ccc(-n2nc(C(C)(C)C)cc2NC(=O)Nc2ccc(OCCN3CCOCC3)c3ccccc23)cc1 [doramapimod]
How it was run: as §1

[19] = compound: C[C@@H]1COCCN1C2=NC(=NC(=C2)C3(CC3)S(=O)(=O)C)C4=C5C=CNC5=CC=C4
How it was run: as §1

[20] = compound: Cc1ccc(C(=O)N(CCCN)[C@@H](c2nc3cc(Cl)ccc3c(=O)n2Cc2ccccc2)C(C)C)cc1 [ispinesib]
How it was run: as §1

Measured: log2 fold change

UNK (UniProt Q9C0B0)
inactive: [1] 0.002 | [2] 0.052 | [3] 0.038 | [4] 0.049 | [5] -0.04 | [6] 0.197 | [7] 0.059 | [8] -0.069 | [9] -0.037 | [10] -0.032 | [11] 0.021 | [12] 0.075 | [13] -0.114 | [14] -0.038 | [15] -0.016 | [16] 0.118 | [17] -0.012 | [18] -0.174

USP15 (UniProt Q9Y4E8)
inactive: [1] 0.027 | [2] -0.004 | [3] 0.051 | [4] -0.018 | [5] -0.043 | [6] 0.016 | [7] 0.028 | [8] -0.05 | [9] -0.021 | [10] -0.027 | [11] 0.04 | [12] -0.041 | [19] 0.05 | [13] -0.009 | [15] -0.043 | [17] 0.063 | [18] -0.045 | [20] -0.036

UBR2 (UniProt Q8IWV8)
inactive: [1] -0.016 | [2] 0.027 | [3] -0.105 | [4] 0.054 | [5] -0.041 | [6] 0.024 | [7] -0.021 | [8] 0.061 | [9] 0.052 | [10] 0.036 | [11] 0 | [12] -0.027 | [19] -0.063 | [13] 0.166 | [15] 0 | [17] 0.135 | [18] 0.073 | [20] -0.141

USP6NL isoform 2 (UniProt Q92738)
inactive: [1] 0.173 | [2] 0.022 | [3] 0.069 | [4] 0.091 | [6] -0.037 | [7] -0.035 | [9] 0.013 | [11] 0.043 | [12] -0.065 | [19] 0.216 | [13] -0.361 | [14] -0.178 | [16] -0.057 | [17] 0.059 | [18] 0.238 | [20] 0.184

USP22 (UniProt Q9UPT9)
inactive: [1] 0.074 | [2] 0.03 | [3] 0.023 | [4] -0.053 | [5] -0.109 | [6] 0.091 | [7] -0.083 | [8] -0.05 | [9] -0.117 | [11] -0.017 | [12] -0.021 | [19] 0.077 | [13] 0.042 | [14] -0.072 | [16] -0.056 | [17] 0.06 | [18] -0.184

URM1 isoform 2 (UniProt Q9BTM9)
inactive: [1] 0.034 | [2] 0.05 | [4] -0.047 | [5] -0.025 | [7] 0.1 | [8] -0.04 | [10] 0.097 | [11] -0.097 | [12] 0.039 | [14] -0.043 | [15] 0.164 | [16] -0.083 | [17] 0.029 | [18] -0.004 | [20] 0.102

Taken from above (2 entries):
USP15 (UniProt Q9Y4E8)
inactive: [1] 0.027 | [2] -0.004 | [3] 0.051 | [4] -0.018 | [5] -0.043 | [6] 0.016 | [7] 0.028 | [8] -0.05 | [9] -0.021 | [10] -0.027 | [11] 0.04 | [12] -0.041 | [19] 0.05 | [13] -0.009 | [15] -0.043 | [17] 0.063 | [18] -0.045 | [20] -0.036

UBR2 (UniProt Q8IWV8)
inactive: [1] -0.016 | [2] 0.027 | [3] -0.105 | [4] 0.054 | [5] -0.041 | [6] 0.024 | [7] -0.021 | [8] 0.061 | [9] 0.052 | [10] 0.036 | [11] 0 | [12] -0.027 | [19] -0.063 | [13] 0.166 | [15] 0 | [17] 0.135 | [18] 0.073 | [20] -0.141

Next entries follow:

USP32 (UniProt Q8NFA0)
inactive: [1] -0.268 | [2] 0.103 | [3] 0.066 | [4] 0.035 | [6] 0.07 | [7] -0.062 | [9] 0.042 | [10] 0.223 | [11] -0.033 | [12] 0.069 | [19] 0.091 | [13] 0.206 | [14] -0.037 | [15] 0.171 | [16] 0.142 | [17] 0.002 | [18] -0.078 | [20] -0.012

UBP1 (UniProt Q9NZI7)
inactive: [1] -0.054 | [2] 0.061 | [3] -0.087 | [5] 0.019 | [7] 0.028 | [8] 0.131 | [11] 0.013 | [12] -0.211 | [19] -0.272 | [13] -0.168 | [14] 0.24 | [16] -0.037 | [17] 0.417 | [18] 0.343 | [20] -0.235

UBR3 isoform 4 (UniProt Q6ZT12)
inactive: [1] -0.166 | [2] 0.038 | [3] -0.043 | [6] 0.045 | [9] -0.086 | [11] 0.012 | [12] -0.319 | [19] 0.021 | [13] 0.113 | [14] -0.143 | [16] 0.097 | [17] 0.211 | [18] -0.11

USP13 (UniProt Q92995)
inactive: [1] -0.046 | [2] -0.017 | [3] 0.021 | [4] 0.001 | [5] 0.003 | [6] -0.226 | [7] 0.044 | [8] 0.033 | [9] 0.169 | [11] 0.086 | [12] -0.004 | [13] 0.108 | [14] -0.015 | [16] 0.007 | [17] 0.039 | [18] 0.009 | [20] 0.196

USP25 isoform 3 (UniProt Q9UHP3)
inactive: [1] -0.011 | [2] 0.037 | [3] 0.014 | [4] -0.039 | [5] 0.027 | [6] 0.004 | [7] 0.032 | [8] 0.022 | [9] 0.001 | [10] 0.018 | [11] 0.042 | [12] -0.003 | [19] -0.017 | [13] -0.062 | [15] -0.024 | [17] 0.021 | [18] 0.007 | [20] -0.025

UCHL5 (UniProt Q9Y5K5)
inactive: [1] 0.023 | [2] -0.035 | [3] 0.026 | [4] -0.044 | [5] -0.048 | [6] 0.04 | [7] 0.008 | [8] -0.031 | [9] -0.023 | [10] 0.012 | [11] 0.023 | [12] -0.066 | [19] 0 | [13] -0.005 | [15] -0.116 | [17] 0.064 | [18] -0.015 | [20] -0.056

USP1 (UniProt O94782)
inactive: [1] 0.107 | [2] -0.094 | [3] 0.062 | [4] 0.21 | [7] 0.141 | [11] 0.147 | [12] -0.063 | [19] -0.097 | [13] -0.104 | [16] 0.081 | [18] -0.152 | [20] -0.012

URI1 isoform 4 (UniProt O94763)
inactive: [1] 0.168 | [2] -0.295 | [3] -0.199 | [4] -0.045 | [7] 0.125 | [10] 0.006 | [11] -0.219 | [12] -0.417 | [19] -0.108 | [13] 0.142 | [14] 0.05 | [15] -0.043 | [16] 0.136 | [17] 0.043 | [18] 0.309 | [20] -0.032

USP3 (UniProt Q9Y6I4)
inactive: [1] 0.131 | [2] -0.246 | [3] 0.009 | [4] -0.039 | [5] 0.085 | [6] -0.201 | [7] -0.007 | [8] -0.014 | [9] 0.053 | [10] 0.027 | [11] 0.065 | [12] -0.131 | [19] 0.043 | [13] -0.26 | [15] -0.246 | [17] 0.155 | [18] -0.023 | [20] -0.04

UBIAD1 (UniProt Q9Y5Z9)
inactive: [1] -0.063 | [2] -0.038 | [3] -0.246 | [4] -0.039 | [5] -0.054 | [6] -0.008 | [7] 0.077 | [8] 0.013 | [9] 0.082 | [10] 0.103 | [11] 0.107 | [12] 0.024 | [13] 0.001 | [15] 0.069 | [17] 0.004 | [18] -0.1 | [20] -0.117

USP20 (UniProt Q9Y2K6)
inactive: [1] 0.056 | [2] 0.021 | [3] -0.078 | [4] -0.105 | [5] 0.077 | [6] -0.182 | [7] 0.063 | [8] -0.229 | [9] 0.052 | [11] -0.189 | [12] -0.131 | [19] -0.066 | [13] 0.192 | [14] -0.185 | [17] -0.002 | [18] -0.036 | [20] -0.117

USP30 (UniProt Q70CQ3)
inactive: [1] 0.019 | [2] -0.024 | [3] 0.001 | [4] 0.006 | [5] -0.332 | [6] -0.026 | [7] 0.024 | [8] -0.046 | [9] 0.019 | [11] 0.145 | [12] 0.159 | [19] -0.037 | [13] 0.166 | [14] 0.104 | [16] 0.1 | [17] -0.094 | [18] -0.016 | [20] -0.038

UGGT1 (UniProt Q9NYU2)
inactive: [1] -0.041 | [2] -0.008 | [3] 0.012 | [4] -0.014 | [5] -0.07 | [6] 0.009 | [7] -0.006 | [8] -0.01 | [9] 0.035 | [10] -0.005 | [11] 0.013 | [12] 0 | [19] 0.012 | [13] 0.009 | [15] 0.005 | [17] 0.016 | [18] 0.017 | [20] 0.012
